# According to patent US12433952B2 (ZYMEWORKS BC INC., priority 2022, dated 2025):
# Assay: general procedure: solution-phase peptide synthesis; HATU
# Settings: for conjugation yield: conjugation step
substance,measurement,setting,value
"2-((2-(((S)-1-((2-(((S)-4-ethyl-8-fluoro-4-hydroxy-3,14-dioxo-3,4,12,14-tetrahydro-1H-pyrano[3′,4′:6,7]indolizino[1,2-b]quinolin-9-yl)amino)-2-oxoethyl)amino)-1-oxo-3-phenylpropan-2-yl)amino)-2-oxoethyl)amino)-2-oxoethan-1-aminium",step yield,coupling step,88% yield
"(9H-fluoren-9-yl)methyl ((7S)-1-((3-azabicyclo[3.1.1]heptan-6-yl)oxy)-7-benzyl-3,6,9,12-tetraoxo-2,5,8,11-tetraazatridecan-13-yl)carbamate",step yield,late stage modification step,46% yield
"(9H-fluoren-9-yl)methyl (S)-(9-benzyl-1-(3-fluoroazetidin-3-yl)-5,8,11,14-tetraoxo-2-oxa-4,7,10,13-tetraazapentadecan-15-yl)carbamate",step yield,late stage modification step,54% yield
"(S)-16-amino-10-benzyl-6,9,12,15-tetraoxo-3-oxa-5,8,11,14-tetraazahexadecyl (((S)-4-ethyl-8-fluoro-4-hydroxy-9-methyl-3,14-dioxo-3,4,12,14-tetrahydro-1H-pyrano[3′,4′:6,7]indolizino[1,2-b]quinolin-11-yl)methyl)carbamate",conjugation yield,TFA salt,39% yield
"tert-butyl (2-((2-(((S)-1-((2-(((S)-4-ethyl-8-fluoro-4-hydroxy-3,14-dioxo-3,4,12,14-tetrahydro-1H-pyrano[3′,4′:6,7]indolizino[1,2-b]quinolin-9-yl)amino)-2-oxoethyl)amino)-1-oxo-3-phenylpropan-2-yl)amino)-2-oxoethyl)amino)-2-oxoethyl)carbamate",conjugation yield,,17% yield
"tert-butyl (((S)-9-(2-((S)-2-(2-(2-aminoacetamido)acetamido)-3-phenylpropanamido)acetamido)-4-ethyl-8-fluoro-4-hydroxy-3,14-dioxo-3,4,12,14-tetrahydro-1H-pyrano[3′,4′:6,7]indolizino[1,2-b]quinolin-11-yl)methyl)carbamate",step yield,"coupling step, TFA salt",64% yield
